Cell number change and AC50 data for 35 molecules are collected here from PubChem BioAssay AID2685 (National Center for Advancing Translational Sciences (NCATS), 2010).

A short description of this test: qHTS Assay for Lipid Storage Modulators in Drosophila S3 Cells.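 As to Cell number change: cells counted by Cell Tracker Red CMTPX staining in the red channel.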 The note with it: BODIPY lipid droplet fluorescence, 18-24 h; for cell number change: measured here: cell count max response, cells fed with added oleic acid. A digest of the protocol: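 Drosophila S3 cells got compounds at several concentrations plus oleic acid (400 uM solution). Laser-scanning cytometry with 488 nm excitation read lipid droplets at 500-530 nm and cells at 575-640 nm. Percent activity was relative to 20 uM Triacsin C.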
(In general: Quantitative high-throughput screening tests each substance at several concentrations.)

Where [1] appears, read: measured here: cell number channel AC50, cells fed with added oleic acid.
The mark [2] stands for this setting: measured here: lipid fluorescence (Fed channel) AC50, cells fed with added oleic acid.

The other results are listed elsewhere or left out. Shown are side measurements of this screen, not its main read-out; they come without a call. The list favours compounds with an active or inconclusive main result. Words in brackets tell the shape of the fitted curve; partial curves, single points and poor fits give uncertain potencies.

For `COc1ccc(-n2nc(C(=O)NCC(=O)NC(C)C)c3ccccc3c2=O)c(OC)c1`, the cell number change turned out to be 12.6%.
Turning to `O=C(CCS(=O)(=O)Cc1ccccc1)Nc1ccc2c(c1)OCCO2`, the cell number change is -42%. In addition, the AC50 under setting [1] was 29.1 µM [falling, single point]. Further, the AC50 under setting [2] was 29.1 µM [falling, single point].
With `O=C(NCc1ccc(Cl)cc1)c1ccc(-c2ccccc2C(F)(F)F)o1`, the cell number change is -33%. In addition, the AC50 under setting [1] is 1.64 µM [falling, full curve, poor fit]. Also, the AC50 under setting [2] is 1.84 µM [falling, full curve, poor fit].
Take `CCN1C(=O)[C@H]2[C@@H](c3ccc(-c4ccccc4)c(OC)c3)N[C@@](Cc3ccccc3)(C(=O)OC)[C@H]2C1=O`: the cell number change came out at 5.02%. Also, under setting [1], the AC50 is 0.13 µM [falling, full curve, poor fit].
In the case of `CCN(CC(=O)Nc1ccccc1C(F)(F)F)C(=O)CCS(=O)(=O)c1ccc(Cl)cc1`, the AC50 under setting [1] is 0.116 µM [falling, full curve, poor fit].
For `COc1ccc(/C=N/NC(=O)c2cccc([N+](=O)[O-])c2)cc1O`, the AC50 is, setting by setting: under setting [1], 0.517 µM [falling, single point]; under setting [2], 0.13 µM [falling, full curve, poor fit].
As to `Cc1ccc(C(=O)N/C(=C/c2ccc(F)cc2)C(=O)NCc2ccncc2)cc1`, the cell number change was -9.78%. Further, under setting [2], the AC50 is 3.26 µM [falling, full curve].
On to `O=C(Nc1ccc(S(=O)(=O)N2CCOCC2)cc1)c1ccc(F)cc1`, for which the cell number change is -7.88%. Besides, the AC50 under setting [2] is 29.1 µM [falling, single point].
Turning to `COc1ccc(C(=O)Nc2ccc(N3CCN(C)CC3)cc2)cc1[N+](=O)[O-]`, the cell number change stood at 33.4%.
In the case of `COc1ccc(CN(C#N)c2nc(C)cc(C)n2)cc1`, the cell number change stood at 36.1%. For the same molecule, the AC50 under setting [1] was 0.517 µM [rising, full curve, poor fit].
For the molecule `Cc1ccc(SCCNC(=O)/C=C/c2ccc([N+](=O)[O-])cc2)cc1`, the cell number change amounted to 9.05%. Besides, the AC50 under setting [2] is 0.13 µM [falling, full curve].
`O=C(/C=C/c1ccc(Br)o1)NCCCN1CCOCC1`: the cell number change was 34.5%. For the same molecule, the AC50 under setting [2] was 29.1 µM [rising, single point].
Turning to `C#CCC(NC(=O)c1ccc(C#N)cc1)C(=O)NCCC` (stereo not drawn), the cell number change is -3.1%. Also, the AC50 under setting [2] was 0.82 µM [falling, single point].
Consider `Cc1cccc(NC(=O)C2CCCN(S(=O)(=O)c3ccc4[nH]c(=O)ccc4c3)C2)c1` (stereo not drawn), for which the cell number change is 22.5%. The AC50 under setting [2] was 6.51 µM [rising, partial curve].
`O=C(Nc1ccc(Cl)cc1)Nc1nc(-c2ccccc2O)cs1`: the cell number change is -34.4%. The AC50 under setting [1] is 13 µM [falling, partial curve]. The AC50 under setting [2] was 4.61 µM [falling, full curve].
On to `CCCCOc1ccc(/C=N/Nc2cc(N3CCOCC3)nc(C)n2)cc1`, for which the cell number change is -48%. Further, the AC50 under setting [1] is 14.6 µM [falling, single point]. Further, under setting [2], the AC50 is 18.4 µM [falling, partial curve, poor fit].
For `CC(=O)c1cn(CCOc2cc(C)ccc2C)c2ccccc12`, the cell number change was 49.5%. For the same molecule, the AC50 under setting [1] was 32.6 µM [rising, single point]. Also, the AC50 under setting [2] is 10.3 µM [falling, partial curve].
As to `O=c1[nH]c2ccc(NCc3ccc(OCc4ccccc4Cl)cc3)cc2[nH]1`, the cell number change was 187%. The AC50 under setting [1] was 29.1 µM [rising, partial curve]. The AC50 under setting [2] was 0.13 µM [rising, full curve, poor fit].
Consider `Cc1ccc(/C=N\NC(=O)c2cc(OCC(F)(F)F)ccc2OCC(F)(F)F)cc1`, for which the cell number change was 105%. In addition, under setting [1], the AC50 is 25.9 µM [rising, partial curve].
Take `COC(=O)c1c(NC(=O)CN(c2ccccc2)S(C)(=O)=O)sc2c1CCCC2`: the cell number change was found to be 25%. Further, the AC50 under setting [2] was 13 µM [rising, partial curve, poor fit].
Consider `O=C(CN1C(=O)c2cccc3cccc1c23)N1CCc2ccccc2C1`, for which the cell number change turned out to be 40%. Besides, under setting [1], the AC50 was 2.31 µM [rising, full curve, poor fit]. Also, the AC50 under setting [2] is 2.06 µM [rising, full curve].
`O=C(NCC1OCCCN1S(=O)(=O)c1cc(F)ccc1F)C(=O)NC1CCCCC1` (stereo not drawn): the cell number change was -31.9%. Further, the AC50 under setting [1] was 0.259 µM [falling, full curve, poor fit]. Besides, the AC50 under setting [2] was 6.51 µM [falling, partial curve, poor fit].
On to `CC(C)CN(C(=O)COC(=O)CSc1ccc(Br)cc1)C1CCS(=O)(=O)C1` (stereo not drawn), for which the cell number change was -13.5%.
For `O=C1CC(c2cc3c(cc2Br)OCO3)C2=C(CCCC2=O)N1` (stereo not drawn), the AC50 under setting [2] is 0.0326 µM [rising, full curve, poor fit].
Take `Cc1nc(N2CCCCC2)sc1C=O`: the cell number change is -37.2%. Also, the AC50 under setting [1] was 29.1 µM [falling, single point].
On to `COc1cc(/C=C/C2=CC(C)(C)NC(=S)N2)cc(OC)c1OC`, for which the cell number change was -5.41%.
`CCCNC(=O)c1onc(CS(=O)(=O)c2cccc(OC)c2)c1C(=O)NCCC`: the cell number change is -25.9%. The AC50 under setting [2] was 0.116 µM [falling, full curve, poor fit].
As for `CCn1c(Cc2ccccc2)nnc1SCC(=O)NC(C)(C)C`, the cell number change amounted to 6.74%. Also, the AC50 under setting [1] is 0.13 µM [rising, full curve, poor fit]. The AC50 under setting [2] is 3.26 µM [rising, partial curve].
`COc1ccccc1N1CCN(C(=O)c2ccc(C(C)(C)C)cc2)CC1`: the cell number change was -12.7%.
Still for that read-out and setting: the figure for `CCN(CC)c1nc(C(N)=O)cc(-c2ccccc2)n1` is -54.5%.
In the case of `O=C(CN1C(=O)COc2ccc(S(=O)(=O)N3CCCC3)cc21)Nc1cccc(F)c1`, the AC50 under setting [2] was 6.51 µM [rising, partial curve].
In the case of `Nc1nc(SCC(=O)OCc2ccccc2)[nH]c(=O)c1NC(=O)c1ccco1`, the cell number change is -104%. Also, under setting [1], the AC50 was 25.9 µM [falling, partial curve, poor fit]. Besides, the AC50 under setting [2] is 18.4 µM [falling, partial curve].
Take `Clc1ccc(CN2CCCCCCC2)cc1Cl`: the cell number change was -59.4%. The AC50 under setting [1] is 13 µM [falling, partial curve, poor fit]. Also, the AC50 under setting [2] was 18.4 µM [falling, single point].
For the molecule `Cc1ccc(C(=O)N2CCCCCC2)cc1S(=O)(=O)N1CCOCC1`, the cell number change amounted to 1.98%. For the same molecule, the AC50 under setting [1] is 0.146 µM [rising, full curve, poor fit]. For the same molecule, the AC50 under setting [2] was 29.1 µM [rising, single point].
As for `CC(NC(=O)c1ccc(F)cc1)c1ccc2c(c1)CCCC2` (stereo not drawn), the cell number change was 113%. For the same molecule, the AC50 under setting [1] was 18.4 µM [rising, single point].

Broadly, the AC50 is the concentration giving half of the maximal activity seen.
